For two substances, binding results are on record in PMC8124066.

Chains of the proteins cited; added tags and fusions are not shown.
UniProt P46935: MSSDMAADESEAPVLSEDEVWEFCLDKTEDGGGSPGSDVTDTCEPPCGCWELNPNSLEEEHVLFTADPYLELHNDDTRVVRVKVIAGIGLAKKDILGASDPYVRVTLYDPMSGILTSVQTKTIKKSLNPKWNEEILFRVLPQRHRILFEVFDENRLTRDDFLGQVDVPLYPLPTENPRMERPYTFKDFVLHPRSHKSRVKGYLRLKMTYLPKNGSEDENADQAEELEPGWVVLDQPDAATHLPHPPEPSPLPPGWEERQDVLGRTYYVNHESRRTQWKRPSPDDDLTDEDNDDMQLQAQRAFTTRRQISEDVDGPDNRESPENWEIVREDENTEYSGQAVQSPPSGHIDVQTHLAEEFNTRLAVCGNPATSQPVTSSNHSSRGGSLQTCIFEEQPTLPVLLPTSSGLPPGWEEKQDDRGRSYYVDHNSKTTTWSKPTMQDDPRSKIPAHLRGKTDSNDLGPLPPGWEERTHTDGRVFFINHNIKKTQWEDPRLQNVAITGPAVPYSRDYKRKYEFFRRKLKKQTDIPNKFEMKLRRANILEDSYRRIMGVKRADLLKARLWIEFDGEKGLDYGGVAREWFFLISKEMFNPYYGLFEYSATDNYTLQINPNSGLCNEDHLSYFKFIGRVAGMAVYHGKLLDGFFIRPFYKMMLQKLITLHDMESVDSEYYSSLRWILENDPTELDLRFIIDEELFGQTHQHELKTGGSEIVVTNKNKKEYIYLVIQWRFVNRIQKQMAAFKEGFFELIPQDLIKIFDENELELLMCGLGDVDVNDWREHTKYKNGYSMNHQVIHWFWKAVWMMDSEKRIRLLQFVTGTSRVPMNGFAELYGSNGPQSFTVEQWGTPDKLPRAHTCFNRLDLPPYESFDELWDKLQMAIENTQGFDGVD
UniProt Q08775: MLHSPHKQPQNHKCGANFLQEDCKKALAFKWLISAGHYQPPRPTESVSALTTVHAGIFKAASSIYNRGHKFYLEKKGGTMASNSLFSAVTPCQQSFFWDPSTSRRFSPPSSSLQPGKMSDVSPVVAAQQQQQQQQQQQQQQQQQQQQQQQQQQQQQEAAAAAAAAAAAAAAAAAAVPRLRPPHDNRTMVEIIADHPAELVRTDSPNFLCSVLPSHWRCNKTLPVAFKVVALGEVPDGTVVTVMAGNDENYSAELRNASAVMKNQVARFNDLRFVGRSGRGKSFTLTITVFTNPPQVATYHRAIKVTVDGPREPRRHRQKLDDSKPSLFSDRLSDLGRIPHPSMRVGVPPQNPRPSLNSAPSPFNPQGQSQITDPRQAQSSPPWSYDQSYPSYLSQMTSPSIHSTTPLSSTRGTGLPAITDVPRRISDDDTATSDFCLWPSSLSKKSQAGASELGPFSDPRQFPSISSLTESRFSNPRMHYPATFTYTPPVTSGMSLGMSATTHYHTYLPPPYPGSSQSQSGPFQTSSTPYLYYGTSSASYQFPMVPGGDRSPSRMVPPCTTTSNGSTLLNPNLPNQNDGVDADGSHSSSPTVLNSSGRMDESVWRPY

These are yes or no findings as the source states them, for the method shown. Binding seen in cells or lysates may run through a third protein. Some entries that bind do so weakly or less than the wild type.

For experiment [1], the target named is Flag-tagged wild-type (wt) Nedd4 (UniProt P46935). Description: co-IP; Myc-Runx2 co-transfected with flag-Nedd4 constructs in M-BMSCs; whole-cell lysates immunoprecipitated with anti-flag antibody, immunoblotted with anti-flag or anti-myc antibodies. A general note: In western blotting, separated proteins are transferred to a membrane and probed.
For experiment [2], the target named is neuronal precursor cell-expressed developmentally downregulated 4 (Nedd4), endogenous (mouse (endogenous in M-BMSCs)) (UniProt P46935). The experiment in a line: co-IP; endogenous proteins; M-BMSCs treated with beraprost (10 µM) for 12 h, lysed with RIPA buffer; whole-cell lysates used for IP with IgG, anti-Nedd4 or anti-Runx2 antibody, then immunoblotting.
Experiment [3] shares this target. Description: co-IP; endogenous proteins; M-BMSCs treated with PBS, lysed with RIPA buffer; whole-cell lysates used for IP with IgG, anti-Nedd4 or anti-Runx2 antibody, then immunoblotting.

As for Myc-Runx2 (from UniProt Q08775 1-607), the binding result in experiment [1] was “binds”.
For “runt-related transcription factor 2 (Runx2), endogenous (from UniProt Q08775 1-607)”, the binding entry in experiment [2] is reported as “binds weakly”; in experiment [3], “binds”.
